The text below walks through data of paper PMC9418810.

Results are given in words; binding and its absence hold for the method and conditions named. Binding calls can cover weak binding; strength is not graded here. Tags and fused reporters may be left off the sequences shown. For some assays here: Binding seen in cells or lysates may run through a third protein.

For assay [1], the target named is AcB2 (full length, 1–615 aa) in the BD plasmid pGBKT7 (Allium cepa (onion)). Kind of assay: two-hybrid; AcB2 and its truncated fragments in pGBKT7 (BD, bait), AcMYB1 or AtTT2 in pGADT7 (AD); yeast strain AH109; spotted on medium lacking Trp, Leu, His and Ade, 3 days at 30°C.
Assay [2] concerns the target AcB2 fused with the N-terminus of luciferase (nLUC) (Allium cepa (onion)). Kind of assay: split reporter; luciferase complementation imaging; AcB2 in 35S::nLuc, AcMYB1 or AtTT2 in 35S::cLuc, co-infiltrated into N. benthamiana leaves; CCD camera.

B1: AtTT2 (full length) in the AD plasmid pGADT7 (protein, UniProt Q9FJA2 1-258)
chain: MGKRATTSVRREELNRGAWTDHEDKILRDYITTHGEGKWSTLPNQAGLKRCGKSCRLRWKNYLRPGIKRGNISSDEEELIIRLHNLLGNRWSLIAGRLPGRTDNEIKNHWNSNLRKRLPKTQTKQPKRIKHSTNNENNVCVIRTKAIRCSKTLLFSDLSLQKKSSTSPLPLKEQEMDQGGSSLMGDLEFDFDRIHSEFHFPDLMDFDGLDCGNVTSLVSSNEILGELVPAQGNLDLNRPFTSCHHRGDDEDWLRDFTC
For the molecule B1, the binding entry in assay [1] is given as “binds”.

B2: AtTT2 in the plasmid 35S::cLuc (fused with the C-terminus of luciferase) (protein, UniProt Q9FJA2 1-258)
chain: B1 chain
For B2, the binding result in assay [2] was “binds”.
